# Results: the supplement of paper PMC8728848
# The other results are listed elsewhere or left out.
# How the values were obtained:
# Experiment in all cases: glycan array binding signal (z-score within array); higher = stronger binding
# Details in all cases: glycan notation: IUPAC condensed, linker removed
# Gal3S(b1-4)Glc = target: Gal3S(b1-4)Glc
# Procedure, shortened: (§1)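 Glycan array data were curated from 3228 arrays in the Consortium for Functional Glycomics database and kept only where the protein sequence was available. Glycan names were converted to IUPAC-condensed notation, and columns mapping to the same glycan were averaged. The binding signal is a within-array Z-score, averaged across arrays of the same protein sequence at different concentrations or buffers and across linkers. Negative Z-scores can be read as non-binding.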
# Gal3S(b1-4)Glc6S = target: Gal3S(b1-4)Glc6S
# Procedure, shortened: as §1
# Gal3S(b1-4)GlcNAc = target: Gal3S(b1-4)GlcNAc
# Procedure, shortened: as §1
# [1] = target: Gal3S(b1-4)[Fuc(a1-3)]Glc6S
# Procedure, shortened: as §1
# [2] = target: Gal3S(b1-4)[Fuc(a1-3)]GlcNAc
# Procedure, shortened: as §1
# [3] = target: Gal3S(b1-4)[Fuc(a1-3)]GlcNAc6S
# Procedure, shortened: as §1
# Gal3S4S(b1-4)GlcNAc = target: Gal3S4S(b1-4)GlcNAc
# Procedure, shortened: as §1
# Gal3S6S(b1-4)GlcNAc = target: Gal3S6S(b1-4)GlcNAc
# Procedure, shortened: as §1
# Gal3S6S(b1-4)GlcNAc6S = target: Gal3S6S(b1-4)GlcNAc6S
# Procedure, shortened: as §1
# Gal4S(b1-4)GlcNAc = target: Gal4S(b1-4)GlcNAc
# Procedure, shortened: as §1
# Gal4S6S(b1-4)GlcNAc = target: Gal4S6S(b1-4)GlcNAc
# Procedure, shortened: as §1
# Gal6P(b1-4)GlcNAc = target: Gal6P(b1-4)GlcNAc
# Procedure, shortened: as §1
# Gal6S(b1-3)GlcNAc = target: Gal6S(b1-3)GlcNAc
# Procedure, shortened: as §1
# Gal6S(b1-3)GlcNAc6S = target: Gal6S(b1-3)GlcNAc6S
# Procedure, shortened: as §1
# Gal6S(b1-4)Glc = target: Gal6S(b1-4)Glc
# Procedure, shortened: as §1
# Gal6S(b1-4)Glc6S = target: Gal6S(b1-4)Glc6S
# Procedure, shortened: as §1
# Gal6S(b1-4)GlcNAc = target: Gal6S(b1-4)GlcNAc
# Procedure, shortened: as §1
# Gal6S(b1-4)GlcNAc6S = target: Gal6S(b1-4)GlcNAc6S
# Procedure, shortened: as §1
# GalNAc(a1-3)Gal = target: GalNAc(a1-3)Gal
# Procedure, shortened: as §1
# GalNAc(a1-3)GalNAc = target: GalNAc(a1-3)GalNAc
# Procedure, shortened: as §1
# [4] = target: GalNAc(a1-3)GalNAc(b1-3)Gal(a1-4)Gal(b1-4)Glc
# Procedure, shortened: as §1
# [5] = target: GalNAc(a1-3)GalNAc(b1-3)Gal(a1-4)Gal(b1-4)GlcNAc
# Procedure, shortened: as §1
# GalNAc(b1-3)Gal = target: GalNAc(b1-3)Gal
# Procedure, shortened: as §1
# [6] = target: GalNAc(b1-3)Gal(a1-4)Gal(b1-4)GlcNAc
# Procedure, shortened: as §1
# [7] = target: GalNAc(b1-3)Gal(a1-4)Gal(b1-4)GlcNAc(b1-3)Gal(b1-4)Glc
# Procedure, shortened: as §1
# [8] = target: GalNAc(b1-3)Gal(a1-6)Gal(b1-4)Glc
# Procedure, shortened: as §1
# GalNAc(b1-3)GalNAc = target: GalNAc(b1-3)GalNAc
# Procedure, shortened: as §1
# GalNAc(b1-3)GlcNAc = target: GalNAc(b1-3)GlcNAc
# Procedure, shortened: as §1
# GalNAc(b1-4)Gal(b1-4)Glc = target: GalNAc(b1-4)Gal(b1-4)Glc
# Procedure, shortened: as §1
# GalNAc(b1-4)GlcNAc = target: GalNAc(b1-4)GlcNAc
# Procedure, shortened: as §1
# [9] = target: GalNAc(b1-4)GlcNAc(b1-2)Man
# Procedure, shortened: as §1
# [10] = target: GalNAc(b1-4)GlcNAc(b1-2)Man(a1-3)[GalNAc(b1-4)GlcNAc(b1-2)Man(a1-6)]Man(b1-4)GlcNAc(b1-4)GlcNAc
# Procedure, shortened: as §1
# [11] = target: GalNAc(b1-4)GlcNAc(b1-3)GalNAc(b1-4)GlcNAc
# Procedure, shortened: as §1
# GalNAc(b1-4)GlcNAc6S = target: GalNAc(b1-4)GlcNAc6S
# Procedure, shortened: as §1
# GalNAc(b1-6)GalNAc = target: GalNAc(b1-6)GalNAc
# Procedure, shortened: as §1
# GalNAc3S(b1-4)GlcNAc = target: GalNAc3S(b1-4)GlcNAc
# Procedure, shortened: as §1
# GalNAc3S(b1-4)GlcNAc3S = target: GalNAc3S(b1-4)GlcNAc3S
# Procedure, shortened: as §1
# [12] = target: GalNAc3S(b1-4)[Fuc(a1-3)]GlcNAc
# Procedure, shortened: as §1
# GalNAc4S6S(b1-4)GlcNAc = target: GalNAc4S6S(b1-4)GlcNAc
# Procedure, shortened: as §1
# GalNAc6S(b1-4)GlcNAc = target: GalNAc6S(b1-4)GlcNAc
# Procedure, shortened: as §1
# Glc(a1-4)Glc = target: Glc(a1-4)Glc
# Procedure, shortened: as §1
# [13] = target: Glc(a1-4)Glc(a1-4)Glc(a1-4)Glc
# Procedure, shortened: as §1
# Glc(a1-6)Glc(a1-6)Glc = target: Glc(a1-6)Glc(a1-6)Glc
# Procedure, shortened: as §1
# [14] = target: Glc(a1-6)Glc(a1-6)Glc(a1-6)Glc
# Procedure, shortened: as §1
# Glc(b1-4)Glc = target: Glc(b1-4)Glc
# Procedure, shortened: as §1
binder,measurement,setting,value
EUL D1A first (Oryza sativa) (protein) MFGFGHHHNQAPAAPSDPNQIFKIFCRANENYCLTVRDSAVVLAPVNPKDEHQHWFKDMRFSTKVKDGEGMPAFALVNKATGLAVKHSLGQSHPVKLVPFNPEYEDASVLWTESKDVGKGFRCIRMVNNTRLNLDAFHGDKDHGGVRDGTTVVLWEWCKGDNQSWKILPWGPEAHSSSPGAATILEQKLISEEDLNSAVDHHHHHH,glycan array binding signal (z-score),Gal3S(b1-4)Glc,-1.36
same,glycan array binding signal (z-score),Gal3S(b1-4)Glc6S,-0.679
same,glycan array binding signal (z-score),Gal3S(b1-4)GlcNAc,0.472
same,glycan array binding signal (z-score),[1],1.7
same,glycan array binding signal (z-score),[2],1.36
same,glycan array binding signal (z-score),[3],0.475
same,glycan array binding signal (z-score),Gal3S4S(b1-4)GlcNAc,-0.601
same,glycan array binding signal (z-score),Gal3S6S(b1-4)GlcNAc,-0.617
same,glycan array binding signal (z-score),Gal3S6S(b1-4)GlcNAc6S,1.45
same,glycan array binding signal (z-score),Gal4S(b1-4)GlcNAc,1.01
same,glycan array binding signal (z-score),Gal4S6S(b1-4)GlcNAc,0.533
same,glycan array binding signal (z-score),Gal6P(b1-4)GlcNAc,-1.29
same,glycan array binding signal (z-score),Gal6S(b1-3)GlcNAc,0.391
same,glycan array binding signal (z-score),Gal6S(b1-3)GlcNAc6S,-1.84
same,glycan array binding signal (z-score),Gal6S(b1-4)Glc,0.973
same,glycan array binding signal (z-score),Gal6S(b1-4)Glc6S,-0.058
same,glycan array binding signal (z-score),Gal6S(b1-4)GlcNAc,0.227
same,glycan array binding signal (z-score),Gal6S(b1-4)GlcNAc6S,0.373
same,glycan array binding signal (z-score),GalNAc(a1-3)Gal,-0.631
same,glycan array binding signal (z-score),GalNAc(a1-3)GalNAc,0.168
same,glycan array binding signal (z-score),[4],-0.059
same,glycan array binding signal (z-score),[5],-0.615
same,glycan array binding signal (z-score),GalNAc(b1-3)Gal,0.675
same,glycan array binding signal (z-score),[6],-0.473
same,glycan array binding signal (z-score),[7],-0.117
same,glycan array binding signal (z-score),[8],-2.32
same,glycan array binding signal (z-score),GalNAc(b1-3)GalNAc,-1.26
same,glycan array binding signal (z-score),GalNAc(b1-3)GlcNAc,-1.3
same,glycan array binding signal (z-score),GalNAc(b1-4)Gal(b1-4)Glc,0.119
same,glycan array binding signal (z-score),GalNAc(b1-4)GlcNAc,1.25
same,glycan array binding signal (z-score),[9],-0.904
same,glycan array binding signal (z-score),[10],0.234
same,glycan array binding signal (z-score),[11],-1.38
same,glycan array binding signal (z-score),GalNAc(b1-4)GlcNAc6S,-0.411
same,glycan array binding signal (z-score),GalNAc(b1-6)GalNAc,0.517
same,glycan array binding signal (z-score),GalNAc3S(b1-4)GlcNAc,-0.401
same,glycan array binding signal (z-score),GalNAc3S(b1-4)GlcNAc3S,-0.185
same,glycan array binding signal (z-score),[12],-0.619
same,glycan array binding signal (z-score),GalNAc4S6S(b1-4)GlcNAc,0.534
same,glycan array binding signal (z-score),GalNAc6S(b1-4)GlcNAc,2.02
same,glycan array binding signal (z-score),Glc(a1-4)Glc,0.013
same,glycan array binding signal (z-score),[13],-0.087
same,glycan array binding signal (z-score),Glc(a1-6)Glc(a1-6)Glc,0.663
same,glycan array binding signal (z-score),[14],0.057
same,glycan array binding signal (z-score),Glc(b1-4)Glc,-0.804

# An excerpt of these results, with bars between the fields:
binder | measurement | setting | value
EUL D1A first (Oryza sativa) (protein) MFGFGHHHNQAPAAPSDPNQIFKIFCRANENYCLTVRDSAVVLAPVNPKDEHQHWFKDMRFSTKVKDGEGMPAFALVNKATGLAVKHSLGQSHPVKLVPFNPEYEDASVLWTESKDVGKGFRCIRMVNNTRLNLDAFHGDKDHGGVRDGTTVVLWEWCKGDNQSWKILPWGPEAHSSSPGAATILEQKLISEEDLNSAVDHHHHHH | glycan array binding signal (z-score) | GalNAc(b1-3)Gal | 0.675
same | glycan array binding signal (z-score) | [6] | -0.473
